# Where a name gives a salt, the structure may show the parent alone.
# How the values were obtained:
# Sprague-Dawley rats [1] = experiment: Hot-plate test, thermal nociception in rats; assay type: in vivo, rat; details: IV 17.52 μmol/kg morphine (vs controls), 0.34 μmol/kg KGNOP1 (vs morphine)
# Experimental: The individual rats were kept inside a transparent cylinder on the heated surface of the plate (52.0°C ± 0.2°C; Panlab).[27] Licking, brisk shaking of the hind paw, and jumping were considered as signs of thermal nociception. The cut-off time was set at 60 seconds. The first measurement was performed after a 10-minute period of accommodation while the animal was quiet. Drugs were intravenously (IV) administered at T0. Thermal nociception was recorded at −30, −15, −5, 5, 10, 15, 30, 45, 60, 90, 120, 180, 240, 300, 360, and 420 minutes (study 2A). […] The maximum possible effect (MPE%) was calculated based on the following equation: [drawing 2]
# The pharmacological model was applied to the investigated drug effects using the maximum likelihood expectation maximization algorithm implemented in WinNonlin (Version 5.1; Pharsight, Princeton, NJ). A standard error variance model was defined as: [drawing 4] where yi is the ith predicted value from the pharmacological model. All model parameters were assumed to be log-normally distributed. […] Estimated parameters for dose–effect relationships are expressed as mean (CV%).
# Thermal nociception was measured during 420 minutes after the drug administration. Tmax was determined for each drug. […]
# Sprague-Dawley rats [2] = experiment: Whole-body plethysmography, respiratory effects in rats; details: IV, time-course study 3A
smiles,measurement,setting,value
"CN1CC[C@]23c4c5ccc(O)c4O[C@H]2[C@@H](O)C=C[C@H]3[C@H]1C5 [Morphine, Morphine sulfate, reference compound]","MPE%, AUC method",Sprague-Dawley rats [1],significantly increased
same,Peak of respiratory effects (time),Sprague-Dawley rats [2],30 min
same,"TI, AUC method, in comparison to controls",Sprague-Dawley rats [2],significantly increased

# From paper PMC5302413, “Bifunctional peptide-based opioid agonist/nociceptin antagonist ligand for dual treatment of nociceptive and neuropathic pain” (Pain, 2016)
